# The list shows a part of the results. This is a noisy data set.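 Tm was set to 64 °C where no melting was found, and many curves are irregular.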
# The chains behind the UniProt entries cited, without tags or fusion partners. Where a name states a change or a piece, a line headed by the entry shows the natural chain unless it says otherwise.
# UniProt Q13469: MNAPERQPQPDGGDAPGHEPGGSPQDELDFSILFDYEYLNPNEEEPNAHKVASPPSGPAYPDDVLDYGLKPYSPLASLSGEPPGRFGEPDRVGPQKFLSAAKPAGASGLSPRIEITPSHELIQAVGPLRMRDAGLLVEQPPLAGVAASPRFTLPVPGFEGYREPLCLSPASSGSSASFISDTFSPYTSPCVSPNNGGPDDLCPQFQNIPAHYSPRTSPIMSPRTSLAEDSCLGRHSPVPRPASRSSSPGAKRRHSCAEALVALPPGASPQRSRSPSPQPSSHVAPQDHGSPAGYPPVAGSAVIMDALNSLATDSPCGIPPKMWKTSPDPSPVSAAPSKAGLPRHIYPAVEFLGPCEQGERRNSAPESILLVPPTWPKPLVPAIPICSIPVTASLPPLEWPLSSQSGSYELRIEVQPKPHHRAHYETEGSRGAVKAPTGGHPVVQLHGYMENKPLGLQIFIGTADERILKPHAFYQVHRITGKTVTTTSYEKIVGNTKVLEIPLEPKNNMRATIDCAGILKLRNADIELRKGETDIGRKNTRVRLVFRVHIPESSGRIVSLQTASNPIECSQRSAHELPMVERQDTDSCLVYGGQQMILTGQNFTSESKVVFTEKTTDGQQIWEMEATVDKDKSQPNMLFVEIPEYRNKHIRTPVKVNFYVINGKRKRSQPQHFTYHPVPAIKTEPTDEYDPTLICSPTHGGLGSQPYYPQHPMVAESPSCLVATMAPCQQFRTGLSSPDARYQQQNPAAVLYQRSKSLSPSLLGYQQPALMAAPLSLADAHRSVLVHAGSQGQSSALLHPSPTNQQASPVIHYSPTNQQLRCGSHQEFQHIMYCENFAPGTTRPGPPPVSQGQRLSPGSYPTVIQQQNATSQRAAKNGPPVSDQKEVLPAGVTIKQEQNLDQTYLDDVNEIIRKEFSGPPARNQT
# UniProt Q15032: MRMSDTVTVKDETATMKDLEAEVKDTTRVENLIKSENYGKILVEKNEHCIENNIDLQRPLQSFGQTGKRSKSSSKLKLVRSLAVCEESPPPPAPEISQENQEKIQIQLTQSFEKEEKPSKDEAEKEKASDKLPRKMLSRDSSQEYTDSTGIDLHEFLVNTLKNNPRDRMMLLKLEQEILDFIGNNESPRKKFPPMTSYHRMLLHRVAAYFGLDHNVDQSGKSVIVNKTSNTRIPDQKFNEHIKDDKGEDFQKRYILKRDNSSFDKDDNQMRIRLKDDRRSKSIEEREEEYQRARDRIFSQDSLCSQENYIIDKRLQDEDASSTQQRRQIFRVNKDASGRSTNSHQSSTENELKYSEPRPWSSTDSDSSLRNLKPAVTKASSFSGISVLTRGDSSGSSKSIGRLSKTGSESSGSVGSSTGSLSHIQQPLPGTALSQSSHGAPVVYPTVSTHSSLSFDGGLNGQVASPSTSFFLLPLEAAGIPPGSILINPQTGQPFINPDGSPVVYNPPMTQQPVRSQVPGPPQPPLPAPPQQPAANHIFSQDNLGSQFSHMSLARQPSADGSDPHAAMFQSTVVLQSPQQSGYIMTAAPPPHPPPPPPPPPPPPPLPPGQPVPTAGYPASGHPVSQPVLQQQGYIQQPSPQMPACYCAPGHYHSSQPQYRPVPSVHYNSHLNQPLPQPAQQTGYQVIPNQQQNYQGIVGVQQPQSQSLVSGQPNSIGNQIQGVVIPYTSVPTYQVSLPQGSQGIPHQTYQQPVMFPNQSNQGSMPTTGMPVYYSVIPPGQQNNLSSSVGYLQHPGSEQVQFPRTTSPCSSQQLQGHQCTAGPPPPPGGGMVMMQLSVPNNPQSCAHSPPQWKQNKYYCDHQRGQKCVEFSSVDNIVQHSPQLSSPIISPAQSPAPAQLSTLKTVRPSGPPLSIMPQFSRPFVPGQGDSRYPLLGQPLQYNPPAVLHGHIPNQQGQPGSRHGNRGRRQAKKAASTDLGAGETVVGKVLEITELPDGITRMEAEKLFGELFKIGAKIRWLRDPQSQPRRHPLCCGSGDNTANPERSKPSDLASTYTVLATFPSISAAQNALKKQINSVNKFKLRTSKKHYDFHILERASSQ
# UniProt Q14202: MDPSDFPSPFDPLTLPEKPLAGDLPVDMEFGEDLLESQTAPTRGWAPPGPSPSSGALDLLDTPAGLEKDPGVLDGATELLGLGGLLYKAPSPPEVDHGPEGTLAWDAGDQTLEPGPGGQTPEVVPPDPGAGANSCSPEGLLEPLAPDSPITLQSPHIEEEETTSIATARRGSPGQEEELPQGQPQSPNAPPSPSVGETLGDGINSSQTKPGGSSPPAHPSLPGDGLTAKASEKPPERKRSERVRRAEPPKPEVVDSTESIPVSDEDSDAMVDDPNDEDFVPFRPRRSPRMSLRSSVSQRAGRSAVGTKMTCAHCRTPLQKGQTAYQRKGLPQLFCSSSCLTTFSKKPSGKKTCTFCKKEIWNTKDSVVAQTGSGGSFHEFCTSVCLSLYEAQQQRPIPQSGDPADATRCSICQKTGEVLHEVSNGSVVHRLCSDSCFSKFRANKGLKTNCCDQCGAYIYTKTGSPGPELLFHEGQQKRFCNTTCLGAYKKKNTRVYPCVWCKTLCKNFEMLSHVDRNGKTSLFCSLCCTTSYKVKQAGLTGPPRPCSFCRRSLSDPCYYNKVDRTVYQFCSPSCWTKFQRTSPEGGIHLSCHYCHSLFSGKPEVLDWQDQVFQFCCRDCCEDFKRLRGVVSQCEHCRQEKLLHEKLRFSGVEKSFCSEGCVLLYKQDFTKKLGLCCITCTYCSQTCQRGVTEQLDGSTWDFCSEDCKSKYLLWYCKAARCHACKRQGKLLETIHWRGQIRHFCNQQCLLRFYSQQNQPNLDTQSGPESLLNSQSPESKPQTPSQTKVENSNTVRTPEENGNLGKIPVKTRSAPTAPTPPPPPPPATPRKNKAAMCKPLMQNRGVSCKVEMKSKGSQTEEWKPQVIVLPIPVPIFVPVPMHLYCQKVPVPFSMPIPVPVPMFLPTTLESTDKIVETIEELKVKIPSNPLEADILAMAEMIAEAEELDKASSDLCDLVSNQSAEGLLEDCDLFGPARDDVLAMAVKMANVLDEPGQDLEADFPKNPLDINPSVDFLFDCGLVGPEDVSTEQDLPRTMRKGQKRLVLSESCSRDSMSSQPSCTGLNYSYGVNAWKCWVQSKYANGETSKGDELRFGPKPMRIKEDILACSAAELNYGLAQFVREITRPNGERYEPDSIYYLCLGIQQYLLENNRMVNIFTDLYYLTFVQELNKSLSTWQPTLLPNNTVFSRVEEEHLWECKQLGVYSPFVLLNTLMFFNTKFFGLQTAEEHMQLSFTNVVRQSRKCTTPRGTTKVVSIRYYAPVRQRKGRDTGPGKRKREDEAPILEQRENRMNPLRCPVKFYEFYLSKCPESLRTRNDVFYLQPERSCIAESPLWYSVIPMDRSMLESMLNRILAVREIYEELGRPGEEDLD
# UniProt Q14432: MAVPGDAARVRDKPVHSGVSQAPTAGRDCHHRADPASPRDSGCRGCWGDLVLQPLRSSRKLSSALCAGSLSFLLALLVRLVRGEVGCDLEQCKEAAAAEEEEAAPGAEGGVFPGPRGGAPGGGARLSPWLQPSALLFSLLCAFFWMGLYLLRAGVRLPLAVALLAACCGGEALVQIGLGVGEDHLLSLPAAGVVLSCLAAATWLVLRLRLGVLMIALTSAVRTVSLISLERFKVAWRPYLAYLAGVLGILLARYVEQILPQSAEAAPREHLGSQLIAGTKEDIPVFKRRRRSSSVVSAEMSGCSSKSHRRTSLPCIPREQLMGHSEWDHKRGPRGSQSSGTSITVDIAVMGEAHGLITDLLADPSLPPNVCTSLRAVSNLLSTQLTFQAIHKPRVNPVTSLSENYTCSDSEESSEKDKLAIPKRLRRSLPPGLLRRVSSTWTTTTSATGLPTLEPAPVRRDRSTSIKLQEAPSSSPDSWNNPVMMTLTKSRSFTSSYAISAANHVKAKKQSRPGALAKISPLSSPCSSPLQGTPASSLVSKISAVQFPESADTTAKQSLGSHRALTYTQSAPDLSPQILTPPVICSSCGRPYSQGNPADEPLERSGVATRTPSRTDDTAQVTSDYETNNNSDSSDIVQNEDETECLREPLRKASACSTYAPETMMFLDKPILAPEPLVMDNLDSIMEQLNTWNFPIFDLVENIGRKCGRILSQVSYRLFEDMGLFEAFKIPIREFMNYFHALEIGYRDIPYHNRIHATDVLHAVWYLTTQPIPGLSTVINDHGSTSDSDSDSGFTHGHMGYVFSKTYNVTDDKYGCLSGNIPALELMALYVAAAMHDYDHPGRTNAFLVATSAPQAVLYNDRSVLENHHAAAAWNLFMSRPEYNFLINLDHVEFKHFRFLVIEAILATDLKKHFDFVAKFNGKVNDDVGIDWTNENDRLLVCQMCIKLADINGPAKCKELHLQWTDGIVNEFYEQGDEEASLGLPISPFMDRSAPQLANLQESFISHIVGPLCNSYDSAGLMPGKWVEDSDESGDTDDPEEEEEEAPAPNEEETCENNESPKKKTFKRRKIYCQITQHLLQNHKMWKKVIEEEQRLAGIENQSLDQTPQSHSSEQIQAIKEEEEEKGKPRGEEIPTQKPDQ
# UniProt Q13308: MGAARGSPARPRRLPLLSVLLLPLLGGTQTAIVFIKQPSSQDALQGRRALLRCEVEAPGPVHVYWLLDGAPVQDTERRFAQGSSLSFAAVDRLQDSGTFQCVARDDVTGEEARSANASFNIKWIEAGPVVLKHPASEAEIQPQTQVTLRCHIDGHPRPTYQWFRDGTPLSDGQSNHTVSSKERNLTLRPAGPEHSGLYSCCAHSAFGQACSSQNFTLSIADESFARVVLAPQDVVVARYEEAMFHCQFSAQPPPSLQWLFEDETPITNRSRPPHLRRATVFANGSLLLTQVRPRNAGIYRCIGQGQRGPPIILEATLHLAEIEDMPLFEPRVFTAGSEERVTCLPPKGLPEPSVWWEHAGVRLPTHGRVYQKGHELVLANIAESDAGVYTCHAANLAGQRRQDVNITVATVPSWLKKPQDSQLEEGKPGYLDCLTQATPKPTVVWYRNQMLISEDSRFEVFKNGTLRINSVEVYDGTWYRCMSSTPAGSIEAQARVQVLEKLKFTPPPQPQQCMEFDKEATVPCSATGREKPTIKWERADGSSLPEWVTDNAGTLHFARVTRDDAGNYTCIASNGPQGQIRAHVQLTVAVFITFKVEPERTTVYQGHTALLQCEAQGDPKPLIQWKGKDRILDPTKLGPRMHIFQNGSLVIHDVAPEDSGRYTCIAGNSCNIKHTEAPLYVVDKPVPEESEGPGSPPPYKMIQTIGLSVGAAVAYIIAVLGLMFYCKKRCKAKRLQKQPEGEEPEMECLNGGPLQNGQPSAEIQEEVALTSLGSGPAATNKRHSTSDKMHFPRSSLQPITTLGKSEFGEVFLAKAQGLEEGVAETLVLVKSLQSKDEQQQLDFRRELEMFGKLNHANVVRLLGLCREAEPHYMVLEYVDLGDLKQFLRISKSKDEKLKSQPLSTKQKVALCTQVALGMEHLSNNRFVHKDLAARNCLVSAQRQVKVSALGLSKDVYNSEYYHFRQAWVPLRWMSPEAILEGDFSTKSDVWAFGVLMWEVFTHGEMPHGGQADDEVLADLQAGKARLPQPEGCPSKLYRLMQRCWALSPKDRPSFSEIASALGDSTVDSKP
# UniProt Q13200: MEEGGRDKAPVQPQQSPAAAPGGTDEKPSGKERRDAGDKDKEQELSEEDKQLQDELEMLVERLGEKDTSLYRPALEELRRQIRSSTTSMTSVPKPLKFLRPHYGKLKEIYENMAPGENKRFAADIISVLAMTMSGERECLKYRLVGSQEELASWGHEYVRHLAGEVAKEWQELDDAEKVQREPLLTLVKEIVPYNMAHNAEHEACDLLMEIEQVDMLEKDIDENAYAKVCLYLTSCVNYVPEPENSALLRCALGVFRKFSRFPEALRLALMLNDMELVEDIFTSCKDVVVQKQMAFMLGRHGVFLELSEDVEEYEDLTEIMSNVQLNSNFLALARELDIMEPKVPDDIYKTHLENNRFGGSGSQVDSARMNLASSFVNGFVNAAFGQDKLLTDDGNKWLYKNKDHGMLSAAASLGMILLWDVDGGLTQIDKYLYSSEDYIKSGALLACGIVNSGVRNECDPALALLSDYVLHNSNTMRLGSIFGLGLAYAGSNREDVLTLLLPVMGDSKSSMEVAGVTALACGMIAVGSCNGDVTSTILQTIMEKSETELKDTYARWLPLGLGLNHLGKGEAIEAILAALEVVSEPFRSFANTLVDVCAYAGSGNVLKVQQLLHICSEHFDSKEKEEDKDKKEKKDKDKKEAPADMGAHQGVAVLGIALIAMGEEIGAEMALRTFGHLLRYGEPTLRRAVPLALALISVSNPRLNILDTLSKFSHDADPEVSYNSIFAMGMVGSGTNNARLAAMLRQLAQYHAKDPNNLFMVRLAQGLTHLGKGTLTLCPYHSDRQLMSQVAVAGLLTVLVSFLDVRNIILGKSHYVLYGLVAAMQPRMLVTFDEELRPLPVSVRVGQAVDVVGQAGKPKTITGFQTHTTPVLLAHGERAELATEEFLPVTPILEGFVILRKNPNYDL
# Compound: CCc1cnccc1C(=O)Nc1cc2c(cc1F)NC(=O)CC2
# Assay: melting temperature shift (DMSO Tm minus MBE1-treated Tm) in cellular thermal proteome profiling; higher = less thermal stabilization by MBE1 (negative = stabilized by MBE1)
# Conditions: A375; MBE1 concentration: 100 nM
row,Target,melting temperature shift
1,COASY (UniProt Q13057),-0.0141 °C
2,LBR (UniProt Q14739),-0.268 °C
3,HNRNPD (UniProt Q14103),-1.58 °C
4,CBFB (UniProt Q13951),0.287 °C
5,RASA3 (UniProt Q14644),-1.21 °C
6,SQLE (UniProt Q14534),0.812 °C
7,UniProt Q13469,-1.35 °C
8,BECN1 (UniProt Q14457),-0.763 °C
9,INPP5A (UniProt Q14642),1.12 °C
10,DYRK1A (UniProt Q13627),-0.513 °C
11,RAB32 (UniProt Q13637),0.262 °C
12,R3HDM1 (UniProt Q15032),-0.342 °C
13,UniProt Q13131,0.641 °C
14,ARFRP1 (UniProt Q13795),-0.852 °C
15,ATR (UniProt Q13535),0.403 °C
16,ZMYM3 (UniProt Q14202),-2.09 °C
17,PTGR1 (UniProt Q14914),1.26 °C
18,DHX8 (UniProt Q14562),0.844 °C
19,PDE3A (UniProt Q14432),-0.701 °C

row,Target,melting temperature shift
1,CHD4 (UniProt Q14839),-0.448 °C
2,DOCK1 (UniProt Q14185),0.678 °C
3,CKAP5 (UniProt Q14008),-0.56 °C
4,MTMR2 (UniProt Q13614),-0.83 °C
5,SAFB2 (UniProt Q14151),-0.103 °C
6,SETDB1 (UniProt Q15047),-0.334 °C
7,UniProt Q13308,-0.952 °C
8,PRPSAP1 (UniProt Q14558),-0.241 °C
9,EIF2B5 (UniProt Q13144),-0.263 °C
10,UniProt Q14194,-1.68 °C
11,UniProt Q14CW9,-2.84 °C
12,FKBP8 (UniProt Q14318),0.0141 °C
13,POLA2 (UniProt Q14181),-0.047 °C
14,GPS1 (UniProt Q13098),-1.04 °C
15,LPIN1 (UniProt Q14693),-0.0447 °C
16,EMC2 (UniProt Q15006),-0.825 °C
17,UniProt Q13948,-0.0916 °C
18,PSMD2 (UniProt Q13200),-0.627 °C
19,CUL3 (UniProt Q13618),-0.51 °C

# Same assay, conditions: A375; MBE1 concentration: 1 uM
row,Target,melting temperature shift
1,COASY (UniProt Q13057),-0.315 °C
2,LBR (UniProt Q14739),0.429 °C
3,HNRNPD (UniProt Q14103),-0.453 °C
4,CBFB (UniProt Q13951),-0.452 °C
5,RASA3 (UniProt Q14644),-0.359 °C
6,SQLE (UniProt Q14534),1.37 °C
7,UniProt Q13469,-0.661 °C
8,BECN1 (UniProt Q14457),0.14 °C
9,INPP5A (UniProt Q14642),0.488 °C
10,DYRK1A (UniProt Q13627),0.391 °C
11,RAB32 (UniProt Q13637),0.396 °C
12,R3HDM1 (UniProt Q15032),-0.983 °C
13,UniProt Q13131,0.55 °C
14,ARFRP1 (UniProt Q13795),-0.845 °C
15,ATR (UniProt Q13535),-0.238 °C
16,ZMYM3 (UniProt Q14202),-0.801 °C
17,PTGR1 (UniProt Q14914),0.397 °C
18,DHX8 (UniProt Q14562),0.0488 °C
19,PDE3A (UniProt Q14432),-1.58 °C

row,Target,melting temperature shift
1,CHD4 (UniProt Q14839),-0.256 °C
2,DOCK1 (UniProt Q14185),0.0611 °C
3,CKAP5 (UniProt Q14008),-0.508 °C
4,MTMR2 (UniProt Q13614),-0.11 °C
5,SAFB2 (UniProt Q14151),-0.148 °C
6,SETDB1 (UniProt Q15047),-0.433 °C
7,UniProt Q13308,0.735 °C
8,PRPSAP1 (UniProt Q14558),1.16 °C
9,EIF2B5 (UniProt Q13144),-0.0794 °C
10,UniProt Q14194,-3.22 °C
11,UniProt Q14CW9,-0.474 °C
12,FKBP8 (UniProt Q14318),-0.127 °C
13,POLA2 (UniProt Q14181),-0.71 °C
14,GPS1 (UniProt Q13098),0.513 °C
15,LPIN1 (UniProt Q14693),0.393 °C
16,EMC2 (UniProt Q15006),-0.409 °C
17,UniProt Q13948,0.336 °C
18,PSMD2 (UniProt Q13200),0.369 °C
19,CUL3 (UniProt Q13618),0.624 °C

# — the supplement of paper PMC12595434, “Development of retinoid nuclear receptor pathway antagonists through targeting aldehyde dehydrogenase 1A3” (iScience, 2025)
